Results: US10413612B2, “Method of treating cancer with a biomaterial and a toll-like receptor agonist” (Dana-Farber Cancer Institute, Inc., priority 2016, dated 2019)
At least one compound was matched to its structure with a doubt left.

Tested on: 4T1-Luc2 syngeneic breast cancer cells
Conditions: scaffold placed in tumor resection site 10 days after inoculation
Procedure: Seven-week-old female Balb/c mice were inoculated orthotopically with 100,000 4T1-Luc2 syngeneic breast cancer cells (into the fourth mammary fat pad). After 10 days, the mice were anesthetized, tumors were surgically resected, and compositions were placed in the resection site. […] The order of surgeries avoided systematic error by dividing up the groups. Standard follow-up care (wound clips, analgesic) was provided.
For the metastatic breast cancer model, 10^5 4T1-Luc2 or 4T1 cells (in 30 μl DPBS) were inoculated orthotopically into the fourth mammary pad of mice to generate a local tumor mass. Cells were injected without any incision to expose the fat pad. Mice were randomly assigned to treatment groups, and surgery was performed 10 days after tumor inoculation. For the metastatic melanoma and lung cancer models, 10^6B16-BL6 or 5×10^5 LLC cells (in 100 μl DPBS) were inoculated subcutaneously in mice to generate a local tumor mass. Mice were randomly assigned to treatment groups, and surgery was performed when tumor volumes reached ˜600 mm^3. While mice were kept under anesthesia at 2% isoflurane, the tumor was resected, and the hydrogel was placed in the site of the resultant cavity at the time of surgery. […]
A series of compositions described above in Table 2 were evaluated in viva. […] Tumor relapse and metastasis were monitored via imaging over the course of 6 weeks. […]

Cc1ccc(-c2cc(C(F)(F)F)nn2-c2ccc(S(N)(=O)=O)cc2)cc1 [celecoxib]
efficacy (tumor recurrence, metastasis, survival), in words: insufficient to confer efficacy
